# Reference: the supplement of paper PMC8728848
# The list shows a part of the results.
# B1: Aap arpt (Staphylococcus epidermidis) (protein)
# chain: NNEAPQMSSTLQAEEGSNAEAPQSEPTKAEEGGNAEAAQSEPTKAEEGGNAEAPQSEPTKAEEGGNAEAAQSEPTKTEEGSNVKAAQSEPTKAEEGSNAEAPQSEPTKTEEGSNAKAAQSEPTKAEEGGNAEAAQSEPTKTEEGSNAEAPQSEPTKAEEGGYAEAPQSEPTKTEEGGNAEAPNVPTIKA
# Columns and labels:
# Assay in all cases: glycan array binding signal (z-score within array); higher = stronger binding
# Conditions in all cases: glycan notation: IUPAC condensed, linker removed
# Gal6S(b1-4)Glc6S = molecular target: Gal6S(b1-4)Glc6S
# How it was run: (§1)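 Glycan array data came from 3228 arrays in the Consortium for Functional Glycomics database, and only arrays with an available protein sequence were kept. Glycan names were put into IUPAC-condensed notation, and columns mapping to the same glycan were averaged. The binding signal is a within-array Z-score, averaged across arrays of one protein sequence run at different concentrations or buffers and across linkers. A negative Z-score can be read as non-binding.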
# Gal6S(b1-4)GlcNAc = molecular target: Gal6S(b1-4)GlcNAc
# How it was run: as §1
# Gal6S(b1-4)GlcNAc6S = molecular target: Gal6S(b1-4)GlcNAc6S
# How it was run: as §1
# GalNAc(a1-3)Gal = molecular target: GalNAc(a1-3)Gal
# How it was run: as §1
# GalNAc(a1-3)GalNAc = molecular target: GalNAc(a1-3)GalNAc
# How it was run: as §1
# [1] = molecular target: GalNAc(a1-3)GalNAc(b1-3)Gal(a1-4)Gal(b1-4)Glc
# How it was run: as §1
# [2] = molecular target: GalNAc(a1-3)GalNAc(b1-3)Gal(a1-4)Gal(b1-4)GlcNAc
# How it was run: as §1
# GalNAc(b1-3)Gal = molecular target: GalNAc(b1-3)Gal
# How it was run: as §1
# [3] = molecular target: GalNAc(b1-3)Gal(a1-4)Gal(b1-4)GlcNAc
# How it was run: as §1
# [4] = molecular target: GalNAc(b1-3)Gal(a1-4)Gal(b1-4)GlcNAc(b1-3)Gal(b1-4)Glc
# How it was run: as §1
# [5] = molecular target: GalNAc(b1-3)Gal(a1-6)Gal(b1-4)Glc
# How it was run: as §1
# GalNAc(b1-3)GalNAc = molecular target: GalNAc(b1-3)GalNAc
# How it was run: as §1
# GalNAc(b1-3)GlcNAc = molecular target: GalNAc(b1-3)GlcNAc
# How it was run: as §1
# GalNAc(b1-4)Gal(b1-4)Glc = molecular target: GalNAc(b1-4)Gal(b1-4)Glc
# How it was run: as §1
# GalNAc(b1-4)GlcNAc = molecular target: GalNAc(b1-4)GlcNAc
# How it was run: as §1
# [6] = molecular target: GalNAc(b1-4)GlcNAc(b1-2)Man
# How it was run: as §1
# [7] = molecular target: GalNAc(b1-4)GlcNAc(b1-2)Man(a1-3)[GalNAc(b1-4)GlcNAc(b1-2)Man(a1-6)]Man(b1-4)GlcNAc(b1-4)GlcNAc
# How it was run: as §1
# [8] = molecular target: GalNAc(b1-4)GlcNAc(b1-3)GalNAc(b1-4)GlcNAc
# How it was run: as §1
# GalNAc(b1-4)GlcNAc6S = molecular target: GalNAc(b1-4)GlcNAc6S
# How it was run: as §1
# GalNAc(b1-6)GalNAc = molecular target: GalNAc(b1-6)GalNAc
# How it was run: as §1
# GalNAc3S(b1-4)GlcNAc = molecular target: GalNAc3S(b1-4)GlcNAc
# How it was run: as §1
# GalNAc3S(b1-4)GlcNAc3S = molecular target: GalNAc3S(b1-4)GlcNAc3S
# How it was run: as §1
# [9] = molecular target: GalNAc3S(b1-4)[Fuc(a1-3)]GlcNAc
# How it was run: as §1
# GalNAc4S6S(b1-4)GlcNAc = molecular target: GalNAc4S6S(b1-4)GlcNAc
# How it was run: as §1
# GalNAc6S(b1-4)GlcNAc = molecular target: GalNAc6S(b1-4)GlcNAc
# How it was run: as §1
# Glc(a1-4)Glc = molecular target: Glc(a1-4)Glc
# How it was run: as §1
# [10] = molecular target: Glc(a1-4)Glc(a1-4)Glc(a1-4)Glc
# How it was run: as §1
# Glc(a1-6)Glc(a1-6)Glc = molecular target: Glc(a1-6)Glc(a1-6)Glc
# How it was run: as §1
# [11] = molecular target: Glc(a1-6)Glc(a1-6)Glc(a1-6)Glc
# How it was run: as §1
# Glc(b1-4)Glc = molecular target: Glc(b1-4)Glc
# How it was run: as §1
# Glc(b1-6)Glc = molecular target: Glc(b1-6)Glc
# How it was run: as §1
# GlcA(b1-3)Gal = molecular target: GlcA(b1-3)Gal
# How it was run: as §1
# GlcA(b1-3)GlcNAc = molecular target: GlcA(b1-3)GlcNAc
# How it was run: as §1
# GlcA(b1-6)Gal = molecular target: GlcA(b1-6)Gal
# How it was run: as §1
# [12] = molecular target: GlcA3S(b1-3)Gal(b1-4)GlcNAc(b1-2)Man
# How it was run: as §1
# [13] = molecular target: GlcA3S(b1-3)Gal(b1-4)GlcNAc(b1-3)Gal(b1-4)Glc
# How it was run: as §1
# [14] = molecular target: GlcNAc(a1-3)Gal(b1-4)GlcNAc
# How it was run: as §1
# [15] = molecular target: GlcNAc(a1-4)Gal(b1-3)GlcNAc
# How it was run: as §1
# [16] = molecular target: GlcNAc(a1-4)Gal(b1-4)GalNAc
# How it was run: as §1
# [17] = molecular target: GlcNAc(a1-4)Gal(b1-4)GlcNAc
# How it was run: as §1
# [18] = molecular target: GlcNAc(a1-4)Gal(b1-4)GlcNAc(b1-3)Gal(b1-4)Glc
# How it was run: as §1
# [19] = molecular target: GlcNAc(a1-4)Gal(b1-4)GlcNAc(b1-3)Gal(b1-4)GlcNAc
# How it was run: as §1
# [20] = molecular target: GlcNAc(a1-4)Gal(b1-4)GlcNAc(b1-3)Gal(b1-4)GlcNAc(b1-3)Gal(b1-4)GlcNAc
# How it was run: as §1
# [21] = molecular target: GlcNAc(a1-4)Gal(b1-4)GlcNAc(b1-3)Gal(b1-4)[Fuc(a1-3)]GlcNAc(b1-3)Gal(b1-4)[Fuc(a1-3)]GlcNAc
# How it was run: as §1
# [22] = molecular target: GlcNAc(a1-6)Gal(b1-4)GlcNAc
# How it was run: as §1
binder,measurement,setting,value
B1,glycan array binding signal (z-score),Gal6S(b1-4)Glc6S,-0.409
same,glycan array binding signal (z-score),Gal6S(b1-4)GlcNAc,0.078
same,glycan array binding signal (z-score),Gal6S(b1-4)GlcNAc6S,0.812
same,glycan array binding signal (z-score),GalNAc(a1-3)Gal,-0.674
same,glycan array binding signal (z-score),GalNAc(a1-3)GalNAc,-1.38
same,glycan array binding signal (z-score),[1],0.342
same,glycan array binding signal (z-score),[2],-1.01
same,glycan array binding signal (z-score),GalNAc(b1-3)Gal,1.73
same,glycan array binding signal (z-score),[3],-0.362
same,glycan array binding signal (z-score),[4],-0.809
same,glycan array binding signal (z-score),[5],-0.992
same,glycan array binding signal (z-score),GalNAc(b1-3)GalNAc,1.53
same,glycan array binding signal (z-score),GalNAc(b1-3)GlcNAc,-0.422
same,glycan array binding signal (z-score),GalNAc(b1-4)Gal(b1-4)Glc,0.457
same,glycan array binding signal (z-score),GalNAc(b1-4)GlcNAc,-0.143
same,glycan array binding signal (z-score),[6],0.101
same,glycan array binding signal (z-score),[7],-0.991
same,glycan array binding signal (z-score),[8],-0.524
same,glycan array binding signal (z-score),GalNAc(b1-4)GlcNAc6S,-0.172
same,glycan array binding signal (z-score),GalNAc(b1-6)GalNAc,-0.924
same,glycan array binding signal (z-score),GalNAc3S(b1-4)GlcNAc,0.505
same,glycan array binding signal (z-score),GalNAc3S(b1-4)GlcNAc3S,0.934
same,glycan array binding signal (z-score),[9],-0.983
same,glycan array binding signal (z-score),GalNAc4S6S(b1-4)GlcNAc,1.06
same,glycan array binding signal (z-score),GalNAc6S(b1-4)GlcNAc,1.13
same,glycan array binding signal (z-score),Glc(a1-4)Glc,1.05
same,glycan array binding signal (z-score),[10],1.34
same,glycan array binding signal (z-score),Glc(a1-6)Glc(a1-6)Glc,0.429
same,glycan array binding signal (z-score),[11],0.308
same,glycan array binding signal (z-score),Glc(b1-4)Glc,1.12
same,glycan array binding signal (z-score),Glc(b1-6)Glc,-1.3
same,glycan array binding signal (z-score),GlcA(b1-3)Gal,-0.023
same,glycan array binding signal (z-score),GlcA(b1-3)GlcNAc,0.04
same,glycan array binding signal (z-score),GlcA(b1-6)Gal,1.29
same,glycan array binding signal (z-score),[12],0.389
same,glycan array binding signal (z-score),[13],0.151
same,glycan array binding signal (z-score),[14],-0.562
same,glycan array binding signal (z-score),[15],-0.533
same,glycan array binding signal (z-score),[16],0.406
same,glycan array binding signal (z-score),[17],-0.322
same,glycan array binding signal (z-score),[18],-2.04
same,glycan array binding signal (z-score),[19],1.32
same,glycan array binding signal (z-score),[20],0.142
same,glycan array binding signal (z-score),[21],2.41
same,glycan array binding signal (z-score),[22],-0.091

# Shown bar-delimited: part of the list above
binder | measurement | setting | value
B1 | glycan array binding signal (z-score) | GalNAc(b1-3)Gal | 1.73
same | glycan array binding signal (z-score) | [3] | -0.362
